Assay results reported in PubChem BioAssay AID2685 (National Center for Advancing Translational Sciences (NCATS), 2010).
The other results are listed elsewhere or left out. The main result of the screen is listed elsewhere. These columns were measured beside it and carry no call. Compounds called inactive in the main read-out are mostly missing here. The note in brackets gives the kind of curve behind each potency; many fits are weak.

Test: qHTS Assay for Lipid Storage Modulators in Drosophila S3 Cells;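 as to cell number change: cells counted by Cell Tracker Red CMTPX staining in the red channel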
Conditions: BODIPY lipid droplet fluorescence, 18-24 h; for cell number change: measured here: cell count max response, cells fed with added oleic acid
Summary of the method: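 Drosophila S3 cells got compounds at several concentrations plus oleic acid (400 uM solution). Laser-scanning cytometry with 488 nm excitation read lipid droplets at 500-530 nm and cells at 575-640 nm. Percent activity was relative to 20 uM Triacsin C.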

[1] = measured here: cell number channel AC50, cells fed with added oleic acid
[2] = measured here: lipid fluorescence (Fed channel) AC50, cells fed with added oleic acid

| SMILES | cell number change [%] | AC50 [1] | AC50 [2] |
| --- | --- | --- | --- |
| O=C(c1ccco1)N1CCN(CC(O)Cn2c3ccccc3c3ccccc32)CC1 (stereo not drawn) | -34.2 | 7.31 µM [falling, partial curve] | 8.2 µM [falling, partial curve] |
| O=c1cc(-c2cccc([N+](=O)[O-])c2)[nH][nH]1 | -4.31 |  | 2.06 µM [falling, partial curve] |
| COc1ccc(C(=O)NC(C)CCCC(C)(C)O)cc1OC1CCN(C(C)=O)CC1 (stereo not drawn) | -3.02 |  | 29.1 µM [rising, single point] |
| Cc1cccc(N2C(N)=NC(N)=NC23CCCCC3)c1 | -18.4 | 5.17 µM [falling, partial curve, poor fit] |  |
| CCSc1nnc(NC(=O)CSc2nnc(CNC(=O)c3ccc(OC)cc3)o2)s1 | 8.11 | 2.06 µM [falling, partial curve] | 4.11 µM [falling, single point] |
| Cn1c(SCc2cc(=O)[nH]c3ccccc23)nnc1-c1ccc(Br)cc1 | 32.3 | 29.1 µM [rising, single point] | 8.2 µM [rising, partial curve] |
| CCOCCCn1c(=NC(=O)c2cccs2)c(C#N)cc2c(=O)n3cccc(C)c3nc21 | 40.7 | 29.1 µM [rising, single point] |  |
| CNc1nc(C)nc(-n2nc(C)cc2C)n1 | 32.9 | 23.1 µM [rising, single point] |  |
| CCCCSc1nnc(-c2c[nH]c3ccccc23)n1C | 3.63 |  |  |
| COc1ccccc1OCc1ccc(C(=O)NC2CCCCC2)o1 | 15.8 |  | 0.708 µM [falling, full curve] |
| CCOC(=O)CN1CC23C=CC(O2)C(C(=O)NCc2cccs2)C3C1=O (stereo not drawn) |  |  | 11.6 µM [falling, partial curve] |
| CCOc1ccccc1N(CC(=O)NCCc1ccc(OC)c(OC)c1)S(=O)(=O)c1ccccc1 |  |  | 0.231 µM [falling, partial curve, poor fit] |
| Cc1ccc(C(=O)N/C(=C\c2ccc(-c3ccccc3[N+](=O)[O-])o2)C(=O)NCCCN(C)C)cc1 | 0.708 |  | 1.84 µM [rising, partial curve, poor fit] |
| CC(C)(C)OC(=O)N1CCC[C@H]1C(=O)NCC1CCC(C(=O)O)CC1 (stereo partly drawn) | 8.02 |  | 16.4 µM [rising, single point] |
| Cn1cnnc1SCC(=O)NCCC(c1ccccc1)c1ccccc1 | 66 | 23.1 µM [rising, single point] | 29.1 µM [rising, single point] |
| COc1ccc2oc(C(=O)CCC(=O)O)c(N)c2c1 |  |  | 0.116 µM [rising, single point] |
| CC(=O)CCN1C(=O)NC2(CCCc3ccccc32)C1=O (stereo not drawn) | -30.3 |  | 7.08 µM [falling, partial curve] |
| O=S(=O)(NNc1cccc(Cl)n1)c1ccc(Cl)cc1 | 0.276 |  |  |
| Cc1cccc(NC(=O)COC(=O)CCCC2=NS(=O)(=O)c3ccccc3N2)c1 |  |  | 20.6 µM [rising, single point] |
| O=C(Cn1cc2c(n1)CCCC2)Nc1ccccc1Cl | 31.8 | 16.4 µM [rising, single point] |  |

| SMILES | cell number change [%] | AC50 [1] | AC50 [2] |
| --- | --- | --- | --- |
| Cc1nc2ccccc2nc1OCC(=O)Nc1ccc2ccccc2c1 |  | 1.64 µM [falling, partial curve] | 4.11 µM [rising, full curve] |
| O=C(CSc1nc2ccccc2[nH]1)Nc1ccc(F)cc1 | 3.13 |  | 0.00517 µM [falling, full curve, poor fit] |
| Clc1cccc(NCc2ccccc2)n1 | -37.8 |  |  |
| Clc1ccc(CNc2ccc(CNc3ncn[nH]3)cc2)c(Cl)c1 | 5.61 | 1.3 µM [rising, partial curve] |  |
| CC(Sc1nncn1C)C(=O)Nc1ccccc1-c1ccccc1 (stereo not drawn) |  |  | 1.3 µM [rising, full curve] |
| CCOc1ccc(OCC)c(NC(=O)CN2CCN(c3cccc(C)c3)CC2)c1 | 15.4 |  | 3.26 µM [rising, partial curve, poor fit] |
| Cc1ccc(NC2CCCN(C(=O)c3ccccn3)C2)cc1C (stereo not drawn) | 18.4 | 0.184 µM [rising, full curve, poor fit] |  |
| S=C(NCc1ccccc1)NCc1cccc(CNC(=S)NCc2ccccc2)c1 | -32.5 | 29.1 µM [falling, single point] | 5.17 µM [falling, full curve] |
| O=C(O)c1cc2nccc(-c3ccco3)n2n1 | 3.94 |  | 0.146 µM [falling, full curve] |
| COC(C(=O)Nc1ccc(F)cc1F)c1ccccc1 (stereo not drawn) | 53.2 | 18.4 µM [rising, single point] |  |
| O=C(NCC1CCCO1)c1ccccc1OCc1ccc(Cl)cc1 (stereo not drawn) | -186 | 23.1 µM [falling, partial curve] |  |
| O=c1oc2ccccc2n1Cn1c(=O)oc2ccccc21 | 9.27 |  | 0.651 µM [rising, full curve] |
| OCC1CCCCN1C(=S)NCc1ccco1 (stereo not drawn) |  |  | 6.51 µM [falling, single point] |
| CN(CC(=O)NC1CCCCCCC1)S(=O)(=O)c1cccc2cccnc12 | -38.9 | 11.6 µM [falling, partial curve, poor fit] | 1.46 µM [falling, partial curve] |
| Cc1cccn2c(=O)c3cc(C(=O)NC4CCCC4)sc3nc12 | -0.88 |  | 1.46 µM [falling, full curve, poor fit] |
| COc1ccc(C(=O)NCC(=O)OCC(=O)c2ccc(Cl)cc2)cc1OC | -11.1 | 0.112 µM [falling, full curve, poor fit] | 0.282 µM [falling, partial curve, poor fit] |
| Cc1cc(=O)[nH]c(N/N=C/c2ccccn2)n1 | 0.55 |  |  |
| CCc1ccc(NC(=O)CCc2ccc(CC)o2)cc1 | -7.92 |  |  |
| O=C(COC(=O)CNC(=O)c1ccc(Cl)cc1)Nc1ccc2c(c1)OCCO2 | -1.8 |  | 29.1 µM [falling, single point] |
| COc1ccccc1OCC(=O)NCCCn1ccnc1 |  | 0.651 µM [falling, single point] |  |

| SMILES | cell number change [%] | AC50 [1] | AC50 [2] |
| --- | --- | --- | --- |
| Cc1ccccc1-c1nc(CN2CCC(C(=O)NCCCN3CCCC3)CC2)c(C)o1 |  | 4.11 µM [falling, single point] |  |
| Cc1ccc(C)c(-n2c(SCC(=O)N3CCCC3)nnc2-c2ccccn2)c1 | 23.2 | 0.461 µM [rising, full curve, poor fit] | 3.66 µM [rising, single point] |
| C/C(=N\NC(=S)NCc1ccccc1)c1ccccc1 | 35.2 | 1.3 µM [rising, partial curve] | 0.517 µM [rising, partial curve] |
| COC(=O)c1cc(NS(=O)(=O)c2ccc(N3CCCCCC3)c([N+](=O)[O-])c2)cc(C(=O)OC)c1 | 148 |  | 0.58 µM [rising, single point] |
| CCN(CC(N)=O)S(=O)(=O)c1ccc(F)cc1 | -34.2 | 35.5 µM [falling, single point] |  |
| CCOc1ccc(OCCC(=O)OCC(=O)NC2CCCC2)cc1 | -11.5 |  | 5.8 µM [falling, single point] |
| COc1cccc(NC(=O)CCCCCn2nnc3ccccc3c2=O)c1 | -0.709 |  | 6.51 µM [falling, single point] |
| Cc1cc(C(=O)O)ccc1-n1c(C)cc(C=C2C(=O)c3ccccc3C2=O)c1C | -10.4 |  |  |
| O=C(NCCN1CCN(c2ccccc2Cl)CC1)Nc1ccccc1 | -8.21 |  | 18.4 µM [rising, partial curve] |
| C=CCn1c(SCC(=O)Nc2cc(C)c(Cl)cc2OC)nnc1-c1ccco1 | -4.55 |  | 0.116 µM [rising, full curve, poor fit] |
| CC1CC(C)CN(CCOCCSc2ccccc2)C1 (stereo not drawn) | 168 | 9.2 µM [rising, partial curve] | 11.6 µM [rising, partial curve] |
| O=C(NCCc1cccnc1)c1cc(COc2ccc(F)cc2F)on1 | 19.1 |  | 4.61 µM [falling, single point] |
| Cc1ccc(N(CC(=O)Nc2ccccc2-c2ccccc2)S(=O)(=O)c2ccccc2)c(C)c1 | 36 | 29.1 µM [rising, single point] | 23.1 µM [falling, single point] |
| COc1ccc(CC(=O)NNS(=O)(=O)c2cccc([N+](=O)[O-])c2)cc1OC | 3.04 |  | 0.0082 µM [rising, full curve, poor fit] |
| CCC(C)(C)NC(=O)C(c1ccc(C)cc1)N(CC1CCCO1)C(=O)c1csnn1 (stereo not drawn) | 16.2 |  |  |
| Cc1ccc2[nH]c(C)c(/C=C/c3cc[n+](C)cc3)c2c1 | -83.8 | 1.84 µM [falling, partial curve] | 0.82 µM [falling, full curve] |
| Cc1ccc(/C=N/NC(=O)c2c[nH]c3ccccc23)o1 |  | 3.26 µM [rising, partial curve] | 0.58 µM [rising, partial curve, poor fit] |
| CC(=O)Nc1ccc(NC(=O)Cc2ccc(S(=O)(=O)N3CCCCC3)s2)cc1 | 3.85 |  | 23.1 µM [rising, single point] |
| O=C(NC(=S)Nc1cccc([N+](=O)[O-])c1)C1CCCCC1 | -6.21 | 0.366 µM [rising, single point] | 0.517 µM [rising, single point] |
| Cc1cc(Nc2ccccc2)c2c([N+](=O)[O-])ccc(C)c2n1 | -13.1 |  | 29.1 µM [falling, single point] |

Ordered by number of heavy atoms (smallest number first): some entries from above.

| SMILES | cell number change [%] | AC50 [1] | AC50 [2] |
| --- | --- | --- | --- |
| O=C(NC(=S)Nc1cccc([N+](=O)[O-])c1)C1CCCCC1 | -6.21 | 0.366 µM [rising, single point] | 0.517 µM [rising, single point] |
| CCC(C)(C)NC(=O)C(c1ccc(C)cc1)N(CC1CCCO1)C(=O)c1csnn1 (stereo not drawn) | 16.2 |  |  |
| Cc1ccc(N(CC(=O)Nc2ccccc2-c2ccccc2)S(=O)(=O)c2ccccc2)c(C)c1 | 36 | 29.1 µM [rising, single point] | 23.1 µM [falling, single point] |
